Assay results as given in doi:10.1101/2020.05.13.094391.
Results are given in words; binding and its absence hold for the method and conditions named. For some assays here: Binding seen in cells or lysates may run through a third protein. Some entries that bind do so weakly or less than the wild type. For some assays here: Tags and fused reporters may be left off the sequences shown.

Sequences of proteins named here, by UniProt entry; tags and fusion partners are left off.
UniProt Q12888: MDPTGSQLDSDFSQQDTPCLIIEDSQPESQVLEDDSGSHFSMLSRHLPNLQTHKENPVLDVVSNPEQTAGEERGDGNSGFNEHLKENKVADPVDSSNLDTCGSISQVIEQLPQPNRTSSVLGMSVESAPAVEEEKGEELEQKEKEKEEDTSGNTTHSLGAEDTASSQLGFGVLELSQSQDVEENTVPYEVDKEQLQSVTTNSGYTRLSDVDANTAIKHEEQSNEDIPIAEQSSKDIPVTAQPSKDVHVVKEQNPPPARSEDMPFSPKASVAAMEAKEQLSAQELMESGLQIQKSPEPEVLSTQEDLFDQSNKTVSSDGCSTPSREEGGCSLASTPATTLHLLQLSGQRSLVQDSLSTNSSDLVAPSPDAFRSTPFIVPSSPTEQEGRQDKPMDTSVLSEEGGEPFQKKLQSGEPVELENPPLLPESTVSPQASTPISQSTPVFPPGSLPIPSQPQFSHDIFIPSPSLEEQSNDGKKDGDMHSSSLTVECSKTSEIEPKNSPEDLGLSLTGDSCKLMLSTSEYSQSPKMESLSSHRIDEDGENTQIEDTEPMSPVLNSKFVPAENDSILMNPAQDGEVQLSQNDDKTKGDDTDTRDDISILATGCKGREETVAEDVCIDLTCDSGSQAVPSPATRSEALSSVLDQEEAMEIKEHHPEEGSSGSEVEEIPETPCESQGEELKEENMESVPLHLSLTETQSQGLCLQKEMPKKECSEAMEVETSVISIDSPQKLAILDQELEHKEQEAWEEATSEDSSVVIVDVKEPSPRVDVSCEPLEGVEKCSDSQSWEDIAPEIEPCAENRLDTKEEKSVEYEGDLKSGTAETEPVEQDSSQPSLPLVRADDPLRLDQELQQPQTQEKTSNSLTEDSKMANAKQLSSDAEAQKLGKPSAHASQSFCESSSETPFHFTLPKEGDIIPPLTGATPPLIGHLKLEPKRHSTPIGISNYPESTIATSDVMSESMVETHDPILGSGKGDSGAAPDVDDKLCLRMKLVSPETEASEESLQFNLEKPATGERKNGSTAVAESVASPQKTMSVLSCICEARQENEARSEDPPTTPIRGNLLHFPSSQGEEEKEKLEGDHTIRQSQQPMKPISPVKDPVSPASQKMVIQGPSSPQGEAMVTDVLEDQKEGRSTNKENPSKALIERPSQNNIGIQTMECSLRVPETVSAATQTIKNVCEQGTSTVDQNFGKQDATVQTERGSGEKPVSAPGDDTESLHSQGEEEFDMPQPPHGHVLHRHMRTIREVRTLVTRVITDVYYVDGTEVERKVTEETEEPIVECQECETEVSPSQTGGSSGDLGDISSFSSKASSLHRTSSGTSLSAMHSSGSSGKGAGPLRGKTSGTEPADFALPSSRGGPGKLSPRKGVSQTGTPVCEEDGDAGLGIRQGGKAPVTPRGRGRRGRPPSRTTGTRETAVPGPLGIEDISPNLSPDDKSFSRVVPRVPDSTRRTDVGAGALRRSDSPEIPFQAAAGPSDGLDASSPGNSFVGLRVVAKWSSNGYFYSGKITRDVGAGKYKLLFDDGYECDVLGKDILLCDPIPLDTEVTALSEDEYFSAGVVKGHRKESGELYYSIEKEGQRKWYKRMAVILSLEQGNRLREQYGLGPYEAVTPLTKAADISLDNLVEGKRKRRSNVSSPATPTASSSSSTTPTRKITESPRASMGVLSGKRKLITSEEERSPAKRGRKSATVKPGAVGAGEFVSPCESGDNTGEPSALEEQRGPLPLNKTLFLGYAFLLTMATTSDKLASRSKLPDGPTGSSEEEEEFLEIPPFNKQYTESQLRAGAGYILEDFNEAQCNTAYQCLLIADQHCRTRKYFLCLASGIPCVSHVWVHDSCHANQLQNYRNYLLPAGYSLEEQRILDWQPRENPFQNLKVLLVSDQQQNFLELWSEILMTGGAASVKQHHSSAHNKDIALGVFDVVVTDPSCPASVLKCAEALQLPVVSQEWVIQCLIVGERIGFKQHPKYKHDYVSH

B1: Zinc finger E-box-Binding protein ZEB1, full-length human (two-hybrid fusion) (protein, UniProt P37275-1 1-1124)
chain: MADGPRCKRRKQANPRRNNVTNYNTVVETNSDSDDEDKLHIVEEESVTDAADCEGVPEDDLPTDQTVLPGRSSEREGNAKNCWEDDRKEGQEILGPEAQADEAGCTVKDDECESDAENEQNHDPNVEEFLQQQDTAVIFPEAPEEDQRQGTPEASGHDENGTPDAFSQLLTCPYCDRGYKRFTSLKEHIKYRHEKNEDNFSCSLCSYTFAYRTQLERHMTSHKSGRDQRHVTQSGCNRKFKCTECGKAFKYKHHLKEHLRIHSGEKPYECPNCKKRFSHSGSYSSHISSKKCISLIPVNGRPRTGLKTSQCSSPSLSASPGSPTRPQIRQKIENKPLQEQLSVNQIKTEPVDYEFKPIVVASGINCSTPLQNGVFTGGGPLQATSSPQGMVQAVVLPTVGLVSPISINLSDIQNVLKVAVDGNVIRQVLENNQANLASKEQETINASPIQQGGHSVISAISLPLVDQDGTTKIIINYSLEQPSQLQVVPQNLKKENPVATNSCKSEKLPEDLTVKSEKDKSFEGGVNDSTCLLCDDCPGDINALPELKHYDLKQPTQPPPLPAAEAEKPESSVSSATGDGNLSPSQPPLKNLLSLLKAYYALNAQPSAEELSKIADSVNLPLDVVKKWFEKMQAGQISVQSSEPSSPEPGKVNIPAKNNDQPQSANANEPQDSTVNLQSPLKMTNSPVLPVGSTTNGSRSSTPSPSPLNLSSSRNTQGYLYTAEGAQEEPQVEPLDLSLPKQQGELLERSTITSVYQNSVYSVQEEPLNLSCAKKEPQKDSCVTDSEPVVNVIPPSANPINIAIPTVTAQLPTIVAIADQNSVPCLRALAANKQTILIPQVAYTYSTTVSPAVQEPPLKVIQPNGNQDERQDTSSEGVSNVEDQNDSDSTPPKKKMRKTENGMYACDLCDKIFQKSSSLLRHKYEHTGKRPHECGICKKAFKHKHHLIEHMRLHSGEKPYQCDKCGKRFSHSGSYSQHMNHRYSYCKREAEERDSTEQEEAGPEILSNEHVGARASPSQGDSDERESLTREEDEDSEKEEEEEDKEMEELQEEKECEKPQGDEEEEEEEEEVEEEEVEEAENEGEEAKTEGLMKDDRAESQASSLGQKVGESSEQVSEEKTNEA
B2: ZEB1, endogenous (protein, UniProt P37275 1-1124)
chain: MADGPRCKRRKQANPRRNNVTNYNTVVETNSDSDDEDKLHIVEEESVTDAADCEGVPEDDLPTDQTVLPGRSSEREGNAKNCWEDDRKEGQEILGPEAQADEAGCTVKDDECESDAENEQNHDPNVEEFLQQQDTAVIFPEAPEEDQRQGTPEASGHDENGTPDAFSQLLTCPYCDRGYKRFTSLKEHIKYRHEKNEDNFSCSLCSYTFAYRTQLERHMTSHKSGRDQRHVTQSGCNRKFKCTECGKAFKYKHHLKEHLRIHSGEKPYECPNCKKRFSHSGSYSSHISSKKCISLIPVNGRPRTGLKTSQCSSPSLSASPGSPTRPQIRQKIENKPLQEQLSVNQIKTEPVDYEFKPIVVASGINCSTPLQNGVFTGGGPLQATSSPQGMVQAVVLPTVGLVSPISINLSDIQNVLKVAVDGNVIRQVLENNQANLASKEQETINASPIQQGGHSVISAISLPLVDQDGTTKIIINYSLEQPSQLQVVPQNLKKENPVATNSCKSEKLPEDLTVKSEKDKSFEGGVNDSTCLLCDDCPGDINALPELKHYDLKQPTQPPPLPAAEAEKPESSVSSATGDGNLSPSQPPLKNLLSLLKAYYALNAQPSAEELSKIADSVNLPLDVVKKWFEKMQAGQISVQSSEPSSPEPGKVNIPAKNNDQPQSANANEPQDSTVNLQSPLKMTNSPVLPVGSTTNGSRSSTPSPSPLNLSSSRNTQGYLYTAEGAQEEPQVEPLDLSLPKQQGELLERSTITSVYQNSVYSVQEEPLNLSCAKKEPQKDSCVTDSEPVVNVIPPSANPINIAIPTVTAQLPTIVAIADQNSVPCLRALAANKQTILIPQVAYTYSTTVSPAVQEPPLKVIQPNGNQDERQDTSSEGVSNVEDQNDSDSTPPKKKMRKTENGMYACDLCDKIFQKSSSLLRHKYEHTGKRPHECGICKKAFKHKHHLIEHMRLHSGEKPYQCDKCGKRFSHSGSYSQHMNHRYSYCKREAEERDSTEQEEAGPEILSNEHVGARASPSQGDSDERESLTREEDEDSEKEEEEEDKEMEELQEEKECEKPQGDEEEEEEEEEVEEEEVEEAENEGEEAKTEGLMKDDRAESQASSLGQKVGESSEQVSEEKTNEA

Experiments:
[1] = biological target: 53BP1, full length (two-hybrid bait) (UniProt Q12888); assay: two-hybrid
[2] = biological target: 53BP1, endogenous (human (endogenous in U2OS)) (UniProt Q12888); assay: co-IP

binding [1]	binding [2]	Binder
binds		B1
	binds	B2
